In the supplement of paper PMC12819154, “High-throughput peptide-centric local stability assay extends protein–ligand identification to membrane proteins, tissues and bacteria” (Nature Structural & Molecular Biology, 2025):
Only a part is listed here, and it is no random draw. Most values lie at the level of the controls, where differences are scatter.
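Also: lysate desalted by size exclusion to strip endogenous ATP, peptide intensities built from DIA-NN precursor signals, and peptides missing any value discarded before comparison.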

Chains of the proteins cited; added tags and fusions are not shown. Lines headed by an entry give the natural chain unless they say otherwise; changes in a name come on top.
UniProt P0ADP7: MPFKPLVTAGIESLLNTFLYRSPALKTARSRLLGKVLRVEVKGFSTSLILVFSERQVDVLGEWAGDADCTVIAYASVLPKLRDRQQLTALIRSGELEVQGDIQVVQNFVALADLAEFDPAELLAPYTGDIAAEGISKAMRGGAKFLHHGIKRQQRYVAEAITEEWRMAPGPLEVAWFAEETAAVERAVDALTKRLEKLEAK

Each molecule was assayed against UniProt P0ADP7 (assay: log2 fold change of tryptic peptide abundance, ligand vs vehicle (limited proteolysis) (log2 ratio); higher = more trypsin-susceptible (destabilized)). Settings: peptide sequence: QQLTALIR; peptide start residue: 85; ligand concentration: 5 mM; sample: E. coli desalted lysate; replicate design: treated before aliquoting.
Procedure: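 HT-PELSA: desalted E. coli K-12 BW25113 lysate (with 12 mM MgCl2) incubated with 5 mM ATP (pH 7) or water for 30 min at 25 C, then a 4 min trypsin pulse at 22 C. Peptides were quantified by DIA-MS (4 replicates). Value is the peptide log2 fold change (treated/control); negative = stabilized. Scale: negative = ligand-stabilized region.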
`Nc1ncnc2c1ncn2[C@@H]1O[C@H](COP(=O)(O)OP(=O)(O)OP(=O)(O)O)[C@@H](O)[C@H]1O` [adenosine 5'-triphosphate] gave a log2 fold change of 0.412.
